From patent publication US5387409A, “Boronic acid adducts of rhenium dioxime and technetium-99m dioxime complexes containing a biochemically active group” (Bracco International B.V., priority 1992, dated 1995)
At least one structure is not confirmed: it was looked up by name or label, or the drawing left a doubt.

How the values were obtained:
[1] = Electrochemical peak potential (cathodic) in water vs. saturated calomel electrode; type: physicochemical; conditions: cathodic peak potential in water vs. saturated calomel electrode (Table 3)
[2] = Cyclic voltammetry in DMF (peak potential vs. Ag/AgNO3); type: physicochemical
[3] = DMF, scan rate = 100 mV/sec, Ag/AgNO3 reference (Table 2)

In the case of O=[N+]([O-])c1nccn1Cc1ccc(B(O)O)cc1 [BBNO2, 1-(2-Nitroimidazoyl)benzylboronic acid], the “Epc(Aqueous)” value [1] is reported as -0.32 V, the “Peak Potential (EP), Nitro-base Anodic” value [2, 3] is reported as -1.43 and the “Peak Potential (EP), Nitro-base Cathodic” value [2, 3] is reported as -1.54. For the same molecule, the “Epc(DMF)” value ([2]; cathodic peak potential in DMF vs. Ag/AgNO3 (Table 3)) was -1.52 V.
